# About 1,400 (4.5%) of roughly 31,000 sequences were called active.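 How the source made its calls: active means median seed-adjusted z-score above 1 or below -1; inactive means the rest.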 This is one part of the list.
# Assay: Novel Modifiers of Survival Motor Neuron (SMN) Protein: Gene Identification via Genome-wide siRNA Screen;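 further: luminescence tracks full-length SMN protein made from the SMN2 reporter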
# Details: HEK293T SMN2-luciferase reporter, siRNA knockdown, 72 h; actives lie on both sides
# Summary of the method: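 Luciferase signal, proportional to full-length SMN made from an SMN2 cDNA reporter in stable HEK293T cells, was read 72 h after siRNA reverse transfection. Values were expressed as MAD scores after non-targeting-control normalization and log10 conversion; seed analysis flagged off-targets.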
row,Sequence,median seed-adjusted z-score
1,CAAGCAGUUUCAUUUCAAATT against PCBD1,inactive: 0
2,GUAAUUCCAUAUAAUCCUUTT against PRKCI,inactive: 0.386
3,CUGUUCUGCUUAUAUGGAATT against HNRPLL,inactive: 0
4,CGAUGUUGCUCUCCAUGGATT against RRN3,inactive: 0.0382
5,CCAUUACAGAACAAUGAGATT against ABCD3,inactive: -0.24
6,UAGCUUCGGUGAUCAAGAATT against ANXA9,inactive: 0.055
7,GGAAGAUCAUGUUCGAAUATT against RGL1,inactive: 0.0217
8,GGUGUGCAUUGAUGCGGAATT against DNMT1,inactive: 0.185
9,GCACUGGACCAAUACAAGUTT against GPR84,inactive: 0.285
10,AGUCAAUUCCUAUUGGUUUTT against HINT3,inactive: 0
11,GGGUCAUGUUUGGUUAGAATT against IMMP1L,inactive: -0.444
12,CAGCAAGUCUCGAAGUAAUTT against LCLAT1,inactive: 0
13,CCUUUAACGUGGACAUGUATT against GPS1,inactive: 0.205
14,GGCUUGACCAUAAAGAACATT against IGF2BP2,inactive: 0.281
15,GCUACAUACCUUCAUUUUATT against SLC22A9,inactive: -0.778
16,CAAUGGAACAAUCAAAGUUTT against RAB31,inactive: 0.41
17,GCCCUACGUUAACAACAAATT against SERPINB11,inactive: 0
18,GGACAUCUGGGUGAAGUUUTT against SNRPF,active: -2.66
19,GCUUCGGCCUUGUAUCAUUTT against CCNE1,inactive: -0.693
20,CACCAGGUCUACAACCUAATT against FEZF2,inactive: 0.203
21,GUAUCCCACUGUCCUAUAATT against SORL1,inactive: 0.357
22,CUCCCUCACCAAAACAAAATT against DUSP26,inactive: 0.204
23,CGGACAAUUUUAACCCUGUTT against M6PR,inactive: -0.879

# Part of the list above, as tab-separated lines.
row	Sequence	median seed-adjusted z-score
4	CGAUGUUGCUCUCCAUGGATT against RRN3	inactive: 0.0382
7	GGAAGAUCAUGUUCGAAUATT against RGL1	inactive: 0.0217
16	CAAUGGAACAAUCAAAGUUTT against RAB31	inactive: 0.41

# Following part

row,Sequence,median seed-adjusted z-score
1,CCUUAAGAGGGAUGAUAAATT against SAFB,inactive: -0.954
2,CGAUUUGUAUAGGAAGCAATT against NKX2-8,inactive: 0.104
3,UCAUUGUCGUGAAUGCUGUTT against CHRNG,inactive: 0.221
4,CUGUUUCCCUGAUCUGGCATT against ETV2,inactive: 0
5,CGAUCACCGUCACAGACUUTT against PCDHB14,inactive: -0.229
6,CCAAGAACCUGAACUAUGATT against ALDH16A1,inactive: 0.42
7,GAAUCAUGUUCGUUCAGGATT against NISCH,inactive: -0.0757
8,CGAAUAACCUUGAUUGACATT against TRPM6,inactive: -0.0375
9,CUAUCAGGGAAAUUACGUATT against ZNF713,inactive: -0.0652
10,GCUGUUACCUGUUUGAAAATT against ATM,inactive: 0.22
11,GAGGUUGACUUUCCAAUGATT against LCMT1,inactive: 0.821
12,ACCGCAACUUUUGAGCUAATT against LCN12,inactive: 0.124
13,GCUUCAAGCAGAACGUAAATT against SFRS8,inactive: -0.353
14,ACAUGUUUGAGAACGGCAATT against FOXL1,inactive: -0.448
15,CCGCCUCUUUGACUGGAUATT against MYO1A,inactive: -0.0501
16,AGUUUUUGCAGAACAAGGATT against SPIRE2,inactive: 0.0604
17,CAUCAGACAUUAUAUUGGUTT against EIF1AY,inactive: 0.00168
18,CGCCUUCGGUGGAAGUUAUTT against DPP7,inactive: -0.217
19,CACCUUUAGUGAAGUAGAATT against CD46,inactive: -0.0278
20,GAAUUAAAGAUUUGGUUGATT against EFCAB1,inactive: -0.719
21,GGCUGUUAGGAGUAAAUCATT against ENPP3,inactive: 0.66
22,GAAUUGACGAUGGUGCAAATT against NTRK2,inactive: 0.103
23,GCUGAUCGGGAACAAGUCATT against RAB43,inactive: -0.0845

row,Sequence,median seed-adjusted z-score
1,CCAUCAAACUUGCAUCCCUTT against ISX,active: 1.99
2,GUAUACCAGGUAAAAAUAATT against RHOXF1,inactive: 0.341
3,GUAUGGACACCAUUAGUAATT against DTX3L,inactive: 0.0785
4,AGUGAGUUACAAGACCUAATT against SLC22A5,inactive: 0.349
5,GUUUAGAUCAUGCACCAUATT against LONRF1,inactive: 0.743
6,GCGGCUUCCCUUCUAGUAATT against DNAJB12,inactive: 0
7,CCAAUAUGACUAACCAGAATT against HDAC1,inactive: -0.61
8,GGACAGAUAUCAUCAACGATT against LDLR,inactive: -0.142
9,CACCAUCUCCGGGAACAGATT against FUT1,inactive: 0.000845
10,GGCCCAUGGAGUUUCUGAATT against UTP14A,inactive: -0.366
11,CAGUCGACCAGUACAUCAATT against PMS1,inactive: 0.0538
12,CAAUAGGUUCAGCUCCAAATT against CLCNKB,inactive: 0.428
13,GACUGGUUAUUACGUCUUATT against SYNJ1,inactive: 0
14,CAAUGGACUAUAGAGUUAATT against GLRB,inactive: 0.0713
15,GGCCUAGGCUUCAACAUCATT against LIN7B,inactive: 0.236
16,GGAUUUUGUCAGUCUAGAATT against OSR2,inactive: 0.603
17,GGACUACAGUGAACAUUGUTT against PSMD14,inactive: 0.375
18,CCAGUUCAAUGAGACCUUUTT against COX4I2,inactive: -0.0202
19,AGUGUUUGCUUGCGACUUATT against B3GALT6,inactive: 0.169
20,CCUACAAUGCGGACAUCGATT against LOXL1,inactive: 0.0435
21,CAUCCUCUUUAACCCAGUUTT against RANBP3,inactive: -0.211
22,CCAUCAACGUGAACCAUUATT against NINJ1,inactive: -0.061
23,GGAAGAACCGCUACAAAGATT against PTPN18,inactive: -0.206
